Values from PubChem BioAssay AID1508597 (Cure First, 2020)

Purpose: 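Survival screen with siRNA in ovarian cancer cells derived from patients, with or without rucaparib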 (primary screen)
Cell system: human ovarian carcinoma lines grown from tumours: OCI-P5x (papillary serous) and OCI-C5x (clear cell)
Reagents: siRNA pool against human genes, 1.25 pmol siRNA per well
Duration: 72 h or 96 h, depending on the cell culture
Conditions: rucaparib 20 µM (about IC30) or vehicle, present until read-out
Rucaparib or vehicle: Vehicle
Cell line: OCI-P5x (serous)
Detection: 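Luminescent ATP-based viability assay read 72 or 96 h after transfection, depending on culture, given as normalised percent viability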
Reading the numbers: viability, normalised: higher = more viable cells remaining
Call rule: 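a well counts as a hit if its normalised viability is under 80 percent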
Calls: active = viability under 80%; inactive = viability 80% or more
Shown is an unselected part of the about 2,100 reagents, under one of the conditions tested. 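Calls flag viability under 80% in either arm, not effects specific to rucaparib; the reference for percent is not stated.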 A reagent listed more than once was tested more than once; the source does not tell the runs apart. No sequences are given here. Not given: the 100% reference.

The first 2 records as a preview:
Gene | technical replicate | viability, normalised (%) | outcome
HECTD3 | 1 | 58.3 | active
HECTD3 | 2 | 38.6 | active

Results, repeating the preview:
Gene | technical replicate | viability, normalised (%) | outcome
HECTD3 | 1 | 58.3 | active
HECTD3 | 2 | 38.6 | active
HECTD3 | 3 | 78.4 | active
FCSK | 1 | 78 | active
FCSK | 2 | 66.1 | active
FCSK | 3 | 58.3 | active
BABAM1 | 1 | 87.8 | inactive
BABAM1 | 1 | 66.9 | active
BABAM1 | 2 | 77.1 | active
BABAM1 | 2 | 58.1 | active
BABAM1 | 3 | 93.9 | inactive
BABAM1 | 3 | 63.5 | active
CLDN18 | 1 | 66.9 | active
CLDN18 | 2 | 78.8 | active
CLDN18 | 3 | 75 | active
TSPYL2 | 1 | 76.7 | active
TSPYL2 | 2 | 73.2 | active
TSPYL2 | 3 | 74.8 | active
PNCK | 1 | 96.4 | inactive
PNCK | 2 | 62.2 | active
PNCK | 3 | 77.3 | active
LPA | 1 | 72.1 | active
LPA | 2 | 64.3 | active
LPA | 3 | 78.3 | active
